Measured values published in patent US20160090556A1, “PRODUCTS COMPRISING MALODOR REDUCTION MATERIALS” (The Procter & Gamble Company, priority 2014, published 2016).
Where two headings read alike, the source gives them in different places. Some compounds share one wording; it may come from a single statement.

Key:
[1] = Melamine formaldehyde PMC leakage
[2] = Melamine formaldehyde PMC Headspace Response Ratio
[3] = class code letter within Comment Code

SMILES | Comment Code: Melamine formaldehyde PMC leakage ([1]; code letter J) | Comment Code: Melamine formaldehyde PMC Headspace Response Ratio ([2]; code letter I) | Melamine formaldehyde PMC leakage (Comment Code J) [1, 3] | Melamine formaldehyde PMC Headspace Response Ratio (Comment Code I) [2, 3] | further results
COc1cc(C)ccc1C(C)C [Material 1062] |  |  |  |  | Melamine formaldehyde PMC leakage (Comment Code J) [1]: J (Melamine formaldehyde PMC leakage less than or equal to 5%); Melamine formaldehyde PMC Headspace Response Ratio (Comment Code I) [2]: I (Melamine formaldehyde PMC Headspace Response Ratio greater than or equal to 10)
CC(C)C(=O)OC1CC2CCC1(C)C2(C)C (stereo not drawn) [Material 603] | J (Melamine formaldehyde PMC leakage less than or equal to 5%) | I (Melamine formaldehyde PMC Headspace Response Ratio greater than or equal to 10) |  |  | Melamine formaldehyde PMC leakage (Comment Code J) [1]: J (Melamine formaldehyde PMC leakage less than or equal to 5%); Melamine formaldehyde PMC Headspace Response Ratio (Comment Code I) [2]: I (Melamine formaldehyde PMC Headspace Response Ratio greater than or equal to 10)
CC1=CCC(C(C)C)=CC1 [Material 319] | J (Melamine formaldehyde PMC leakage less than or equal to 5%) | I (Melamine formaldehyde PMC Headspace Response Ratio greater than or equal to 10) |  |  | 
CCOC(=O)C1C(CC)=CCCC1(C)C (stereo not drawn) [Material 294] |  |  | J (Melamine formaldehyde PMC leakage less than or equal to 5%) | I (Melamine formaldehyde PMC Headspace Response Ratio greater than or equal to 10) | 
CC1(C)C2CCC3(CO3)C1C2 (stereo not drawn) [Material 617] | J (Melamine formaldehyde PMC leakage less than or equal to 5%) | I (Melamine formaldehyde PMC Headspace Response Ratio greater than or equal to 10) |  |  | 
CCOC(=O)C12CCCC1C1CCC2C1 (stereo not drawn) [Material 344] |  |  | J (Melamine formaldehyde PMC leakage less than or equal to 5%) | I (Melamine formaldehyde PMC Headspace Response Ratio greater than or equal to 10) | 
CCNC(=O)C1CC(C)CCC1C(C)C (stereo not drawn) [Material 57] |  |  | J (Melamine formaldehyde PMC leakage less than or equal to 5%) | I (Melamine formaldehyde PMC Headspace Response Ratio greater than or equal to 10) | 
CC1(C)C2CCC3(C2)C1C(=O)CCC3(C)C (stereo not drawn) [Material 1149] | J (Melamine formaldehyde PMC leakage less than or equal to 5%) | I (Melamine formaldehyde PMC Headspace Response Ratio greater than or equal to 10) |  |  | Comment Code: Melamine formaldehyde PMC leakage ([1]; code J of the Comment Code column, Table 1): J (Melamine formaldehyde PMC leakage less than or equal to 5%); Comment Code: Melamine formaldehyde PMC Headspace Response Ratio ([2]; code I of the Comment Code column, Table 1): I (Melamine formaldehyde PMC Headspace Response Ratio greater than or equal to 10)
CC(C)=CCCC(C)CC=O (stereo not drawn) [Material 891] | J (Melamine formaldehyde PMC leakage less than or equal to 5%) | I (Melamine formaldehyde PMC Headspace Response Ratio greater than or equal to 10) |  |  | 
CC(=O)OC(C)(C)C1CCC(C)CC1 (stereo not drawn) [Material 447] | J (Melamine formaldehyde PMC leakage less than or equal to 5%) | I (Melamine formaldehyde PMC Headspace Response Ratio greater than or equal to 10) |  |  | 
C=C1C2CCC(C2)C1(C)C (stereo not drawn) [Material 589] |  |  |  |  | Melamine formaldehyde PMC leakage (Comment Code J) [1]: J (Melamine formaldehyde PMC leakage less than or equal to 5%); Melamine formaldehyde PMC Headspace Response Ratio (Comment Code I) [2]: I (Melamine formaldehyde PMC Headspace Response Ratio greater than or equal to 10)
CC(=O)C=CC12OC1(C)CCCC2(C)C (stereo not drawn) [Material 636] |  |  |  |  | Melamine formaldehyde PMC leakage (Comment Code J) [1]: J (Melamine formaldehyde PMC leakage less than or equal to 5%); Melamine formaldehyde PMC Headspace Response Ratio (Comment Code I) [2]: I (Melamine formaldehyde PMC Headspace Response Ratio greater than or equal to 10)
CC(C)=CCCC(C)CCO (stereo not drawn) [Material 900] | J (Melamine formaldehyde PMC leakage less than or equal to 5%) | I (Melamine formaldehyde PMC Headspace Response Ratio greater than or equal to 10) |  |  | 
O=CC(O)C(O)C(O)CO (stereo not drawn) [Material 417] |  |  | J (Melamine formaldehyde PMC leakage less than or equal to 5%) | I (Melamine formaldehyde PMC Headspace Response Ratio greater than or equal to 10) | 
CC(C)C(=O)OC1CC2CCC1(C)C2(C)C (stereo not drawn) [Material 229] | J (Melamine formaldehyde PMC leakage less than or equal to 5%) | I (Melamine formaldehyde PMC Headspace Response Ratio greater than or equal to 10) | J (Melamine formaldehyde PMC leakage less than or equal to 5%) | I (Melamine formaldehyde PMC Headspace Response Ratio greater than or equal to 10) | 
CC1=CCC(C)C(C)C12C=CC(C)O2 (stereo not drawn) [Material 192] |  |  | J (Melamine formaldehyde PMC leakage less than or equal to 5%) | I (Melamine formaldehyde PMC Headspace Response Ratio greater than or equal to 10) | 
Cc1ccc(C(C)(C)O)cc1 [Material 4] |  |  | J (Melamine formaldehyde PMC leakage less than or equal to 5%) | I (Melamine formaldehyde PMC Headspace Response Ratio greater than or equal to 10) | 
C=C(C)CCC[C@H](C)CCO [Material 1004] | J (Melamine formaldehyde PMC leakage less than or equal to 5%) | I (Melamine formaldehyde PMC Headspace Response Ratio greater than or equal to 10) |  |  | 
C=C(C)C1CCC(C)(O)C1C (stereo not drawn) [Material 981] | J (Melamine formaldehyde PMC leakage less than or equal to 5%) | I (Melamine formaldehyde PMC Headspace Response Ratio greater than or equal to 10) |  |  | 
CC1=CCC(O)(C(C)C)CC1 (stereo not drawn) [Material 791] |  |  |  |  | Melamine formaldehyde PMC leakage (Comment Code J) [1]: J (Melamine formaldehyde PMC leakage less than or equal to 5%); Melamine formaldehyde PMC Headspace Response Ratio (Comment Code I) [2]: I (Melamine formaldehyde PMC Headspace Response Ratio greater than or equal to 10)
CC1CCC2CC1C2(C)C (stereo not drawn) [Material 525] | J (Melamine formaldehyde PMC leakage less than or equal to 5%) | I (Melamine formaldehyde PMC Headspace Response Ratio greater than or equal to 10) |  |  | 
CC12CCCC(C)(CC1)C2=NO [Material 921] | J (Melamine formaldehyde PMC leakage less than or equal to 5%) | I (Melamine formaldehyde PMC Headspace Response Ratio greater than or equal to 10) |  |  | 
C=C1CCC2(C(C)C)CC12 (stereo not drawn) [Material 1018] | J (Melamine formaldehyde PMC leakage less than or equal to 5%) | I (Melamine formaldehyde PMC Headspace Response Ratio greater than or equal to 10) |  |  | 
C=CC(C)CC(=O)CC(C)C (stereo not drawn) [Material 436] |  |  | J (Melamine formaldehyde PMC leakage less than or equal to 5%) | I (Melamine formaldehyde PMC Headspace Response Ratio greater than or equal to 10) | 
CC(C)[C@@]12CC(=O)[C@H](C)[C@@H]1C2 [Material 683] |  |  |  |  | Melamine formaldehyde PMC leakage (Comment Code J) [1]: J (Melamine formaldehyde PMC leakage less than or equal to 5%); Melamine formaldehyde PMC Headspace Response Ratio (Comment Code I) [2]: I (Melamine formaldehyde PMC Headspace Response Ratio greater than or equal to 10)
COC1=C(C)OC(C)C1=O (stereo not drawn) [Material 740] | J (Melamine formaldehyde PMC leakage less than or equal to 5%) | I (Melamine formaldehyde PMC Headspace Response Ratio greater than or equal to 10) |  |  | 
COC(C)(C)C1CC=C(C)CC1 (stereo not drawn) [Material 20] | J (Melamine formaldehyde PMC leakage less than or equal to 5%) | I (Melamine formaldehyde PMC Headspace Response Ratio greater than or equal to 10) |  |  | 
CC(C)=CCCC(C)CCO (stereo not drawn) [Material 517] | J (Melamine formaldehyde PMC leakage less than or equal to 5%) | I (Melamine formaldehyde PMC Headspace Response Ratio greater than or equal to 10) |  |  | 
CC(C)C1OC2(CCCC2)OCC1(C)C (stereo not drawn) [Material 25] |  |  | J (Melamine formaldehyde PMC leakage less than or equal to 5%) | I (Melamine formaldehyde PMC Headspace Response Ratio greater than or equal to 10) | 
CC=CC(=O)C1C(C)=CCCC1(C)C (stereo not drawn) [Material 880] | J (Melamine formaldehyde PMC leakage less than or equal to 5%) | I (Melamine formaldehyde PMC Headspace Response Ratio greater than or equal to 10) |  |  | 
